This is an account of results in publication PMC4823986.

By UniProt entry, the sequences of proteins in these tests, tags left out. Where a name states a change or a piece, a line headed by the entry shows the natural chain unless it says otherwise. Chains listed by the source or under a name are the forms on record and can include a tag or linker.
UniProt Q9VTP4: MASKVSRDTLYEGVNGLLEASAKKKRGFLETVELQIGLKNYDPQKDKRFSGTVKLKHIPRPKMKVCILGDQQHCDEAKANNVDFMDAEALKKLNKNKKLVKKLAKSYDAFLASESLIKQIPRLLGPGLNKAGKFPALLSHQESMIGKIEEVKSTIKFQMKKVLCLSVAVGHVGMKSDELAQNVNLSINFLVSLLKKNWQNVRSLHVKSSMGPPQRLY
RpL30 GFP-trap protein (Q9VJ19, form named): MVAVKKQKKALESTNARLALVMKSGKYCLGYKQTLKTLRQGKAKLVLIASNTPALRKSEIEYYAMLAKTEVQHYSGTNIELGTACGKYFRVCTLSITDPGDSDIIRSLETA
UniProt P46223: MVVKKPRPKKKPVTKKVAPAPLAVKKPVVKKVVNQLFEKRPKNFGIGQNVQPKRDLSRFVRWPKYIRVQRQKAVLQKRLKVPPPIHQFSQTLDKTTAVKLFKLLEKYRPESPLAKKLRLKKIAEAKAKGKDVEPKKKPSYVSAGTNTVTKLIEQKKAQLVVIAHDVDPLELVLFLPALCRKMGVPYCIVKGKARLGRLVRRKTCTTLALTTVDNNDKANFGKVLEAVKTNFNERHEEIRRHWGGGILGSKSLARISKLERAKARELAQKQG

Test [1] concerns the target T1, Clueless (Clu), endogenous in S2R+ cells (Drosophila (endogenous in S2R+ cells)) (UniProt A1ZAB5).
T1 sequence: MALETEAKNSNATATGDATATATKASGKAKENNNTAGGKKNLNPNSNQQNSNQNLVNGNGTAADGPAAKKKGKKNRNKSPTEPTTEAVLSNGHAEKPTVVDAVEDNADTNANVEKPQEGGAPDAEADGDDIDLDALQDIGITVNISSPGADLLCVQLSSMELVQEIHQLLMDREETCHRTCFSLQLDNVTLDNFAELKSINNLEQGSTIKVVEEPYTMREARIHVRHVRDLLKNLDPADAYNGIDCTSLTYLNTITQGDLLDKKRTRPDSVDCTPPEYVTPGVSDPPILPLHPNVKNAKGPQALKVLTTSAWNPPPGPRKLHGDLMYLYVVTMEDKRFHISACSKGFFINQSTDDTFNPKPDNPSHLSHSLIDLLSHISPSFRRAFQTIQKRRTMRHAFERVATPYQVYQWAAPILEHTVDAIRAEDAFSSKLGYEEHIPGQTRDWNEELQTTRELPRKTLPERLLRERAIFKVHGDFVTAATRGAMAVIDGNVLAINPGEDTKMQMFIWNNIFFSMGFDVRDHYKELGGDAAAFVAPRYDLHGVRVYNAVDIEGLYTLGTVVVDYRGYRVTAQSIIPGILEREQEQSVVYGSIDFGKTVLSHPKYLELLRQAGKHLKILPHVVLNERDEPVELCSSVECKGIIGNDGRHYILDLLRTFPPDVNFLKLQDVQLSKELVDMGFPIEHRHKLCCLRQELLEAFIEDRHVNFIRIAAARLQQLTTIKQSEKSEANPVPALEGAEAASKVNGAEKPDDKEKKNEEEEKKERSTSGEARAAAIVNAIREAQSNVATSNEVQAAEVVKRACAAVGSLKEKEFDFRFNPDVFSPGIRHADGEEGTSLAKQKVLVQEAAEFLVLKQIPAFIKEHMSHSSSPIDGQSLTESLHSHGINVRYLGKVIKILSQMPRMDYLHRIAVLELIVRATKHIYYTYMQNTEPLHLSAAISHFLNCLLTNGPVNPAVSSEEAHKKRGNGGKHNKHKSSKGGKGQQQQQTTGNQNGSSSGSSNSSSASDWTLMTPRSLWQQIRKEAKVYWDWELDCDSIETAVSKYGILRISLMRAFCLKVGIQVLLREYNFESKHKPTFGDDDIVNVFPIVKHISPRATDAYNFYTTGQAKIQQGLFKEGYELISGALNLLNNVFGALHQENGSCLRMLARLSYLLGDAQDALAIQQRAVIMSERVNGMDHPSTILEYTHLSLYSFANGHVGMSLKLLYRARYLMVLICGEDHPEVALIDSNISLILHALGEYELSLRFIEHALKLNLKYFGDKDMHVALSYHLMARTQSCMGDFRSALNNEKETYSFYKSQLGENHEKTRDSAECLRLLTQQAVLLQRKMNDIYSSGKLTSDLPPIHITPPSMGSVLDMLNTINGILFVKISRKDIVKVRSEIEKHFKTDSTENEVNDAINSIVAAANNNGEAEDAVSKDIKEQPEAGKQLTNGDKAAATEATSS
The experiment in a line: co-IP; S2R+ cells transfected with myc-tagged proteins; reciprocal co-IPs with Clu, western blot.

The target in test [2] is full-length Clueless (Clu), myc-tagged and FLAG-tagged copies (Drosophila) (UniProt A1ZAB5). The experiment in a line: co-IP; S2R+ cells transfected with both myc- and FLAG-tagged full-length Clu; reciprocal immunoprecipitation, western blot.
Test [3] deals with RpL10Ab GFP-trap protein (Drosophila) (UniProt Q9VTP4). The experiment in a line: co-IP; extract from adult flies of GFP-trap lines; anti-GFP antibody to pull down, western blot for Clu.
Test [4] addresses RpL30 GFP-trap protein (Drosophila) (UniProt Q9VJ19). The test is described as above.
Test [5] deals with T2, Eukaryotic initiation factor 3-S9 (eIF3-S9) GFP-trap protein (Drosophila) (UniProt Q0E940).
T2 sequence: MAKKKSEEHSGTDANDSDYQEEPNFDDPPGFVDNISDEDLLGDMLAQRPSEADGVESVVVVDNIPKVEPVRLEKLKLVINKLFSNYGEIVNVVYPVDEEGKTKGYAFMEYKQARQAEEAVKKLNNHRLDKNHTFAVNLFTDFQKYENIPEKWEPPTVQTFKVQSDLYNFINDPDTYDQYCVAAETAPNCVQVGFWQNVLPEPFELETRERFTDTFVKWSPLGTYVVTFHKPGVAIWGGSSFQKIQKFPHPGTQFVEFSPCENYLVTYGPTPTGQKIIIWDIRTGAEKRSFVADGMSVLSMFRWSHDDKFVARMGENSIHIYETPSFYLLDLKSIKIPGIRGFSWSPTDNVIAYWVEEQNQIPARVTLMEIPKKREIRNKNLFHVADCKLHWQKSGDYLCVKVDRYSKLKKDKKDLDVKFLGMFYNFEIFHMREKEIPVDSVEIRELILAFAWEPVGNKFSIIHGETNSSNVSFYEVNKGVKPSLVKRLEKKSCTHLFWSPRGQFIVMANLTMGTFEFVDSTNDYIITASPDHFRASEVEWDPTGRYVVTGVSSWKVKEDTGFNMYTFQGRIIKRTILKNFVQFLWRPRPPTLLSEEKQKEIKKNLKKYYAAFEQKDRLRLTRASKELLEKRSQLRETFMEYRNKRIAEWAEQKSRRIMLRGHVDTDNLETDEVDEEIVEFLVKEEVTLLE
Described as above.

Test [6] deals with RpL7a-myc expressed in adult flies (UAS-RpL7a-myc) (Drosophila) (UniProt P46223). The experiment in a line: co-IP; cytoplasmic fraction of extract from adult flies expressing UAS-RpL7a-myc; reciprocal co-IPs in mitochondrial isolation buffer with 0.5% Triton X-100 and 1 mM DTT.
Test [7] has the same target. The experiment in a line: co-IP; mitochondrial fraction of extract from adult flies expressing UAS-RpL7a-myc; reciprocal co-IPs in mitochondrial isolation buffer with 0.5% Triton X-100 and 1 mM DTT.
Test [8] concerns the target myc-tagged large Ribosomal protein (RpL) 7a (Drosophila) (UniProt P46223). The experiment in a line: co-IP; S2R+ cells transfected with myc-tagged proteins; reciprocal co-IPs with Clu, western blot.
The target in test [9] is T3, myc-tagged small Ribosomal protein (RpS) 4 (Drosophila) (UniProt P41042).
T3 sequence: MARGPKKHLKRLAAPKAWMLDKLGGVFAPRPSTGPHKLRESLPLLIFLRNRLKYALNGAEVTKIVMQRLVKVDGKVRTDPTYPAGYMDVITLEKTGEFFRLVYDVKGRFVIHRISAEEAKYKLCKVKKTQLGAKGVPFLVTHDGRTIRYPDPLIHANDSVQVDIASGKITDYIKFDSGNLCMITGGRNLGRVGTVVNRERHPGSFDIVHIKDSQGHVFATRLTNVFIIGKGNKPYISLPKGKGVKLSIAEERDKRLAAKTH
The description is as above.

Test [10] addresses T4, myc-tagged small Ribosomal protein RpS7 (Drosophila) (UniProt Q9VA91).
T4 sequence: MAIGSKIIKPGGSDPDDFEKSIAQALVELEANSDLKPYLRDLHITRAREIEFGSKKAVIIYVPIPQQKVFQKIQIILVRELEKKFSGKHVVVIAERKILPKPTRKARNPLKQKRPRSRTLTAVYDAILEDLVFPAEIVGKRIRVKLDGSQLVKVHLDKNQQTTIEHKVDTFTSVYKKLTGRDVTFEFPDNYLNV
The test is described as above.

No constants are given. Whether binding was seen depends on the method and setting. Binding seen in cells or lysates may run through a third protein. Some results given as binding are weak or reduced against the parent protein; the word gives no strength. For part of these data: Tags and fused reporters may be left off the sequences shown.

For the molecule “myc-tagged large Ribosomal protein (RpL) 7a (from UniProt P46223 1-271)”, the binding entry in test [1] is “binds”.

B1: myc-tagged small Ribosomal protein (RpS) 4 (protein, UniProt P41042 1-261)
chain: T3 sequence
Consider B1, for which the binding entry in [1] is on record as “binds”.

B2: myc-tagged small Ribosomal protein RpS7 (protein, UniProt Q9VA91 1-194)
chain: T4 sequence
B2: the binding entry in test [1] is given as “binds”.

B3: full-length Clueless (Clu), myc-tagged and FLAG-tagged copies (protein, UniProt A1ZAB5 1-1448)
chain: T1 sequence
For the molecule B3, in [2], the binding result is listed as “binds”.

B4: Clueless (Clu), endogenous in adult flies (protein, UniProt A1ZAB5 1-1448)
chain: T1 sequence
Take B4: the binding entry is listed as “binds” in test [3]; “binds” in test [4]; “binds” in [5]; “no binding (condition: in the cytoplasmic fraction)” in [6]; “binds” in test [7].

B5: Clueless (Clu), endogenous in S2R+ cells (protein, UniProt A1ZAB5 1-1448)
chain: T1 sequence
On to B5, for which the binding entry in [8], in test [9] and in test [10] was “binds” each time.
